Results are given in words; binding and its absence hold for the method and conditions named. Binding seen in cells or lysates may run through a third protein. A yes stands for co-enrichment or nearness to the bait. Other partners may have been found.
Target: Beclin-1, endogenous (human (endogenous in HepaRG or Huh7 derived cells)) (UniProt Q14457)
Assay: affinity purification with mass spectrometry; HepaRG transfected with HA-STING, 24 h later rhIL-33 (100 ng/mL) for 12 h; HA-STING precipitated by Beclin-1 purified and analysed by LC-MS/MS

The chains behind the UniProt entries cited, without tags or fusion partners.
UniProt Q14457: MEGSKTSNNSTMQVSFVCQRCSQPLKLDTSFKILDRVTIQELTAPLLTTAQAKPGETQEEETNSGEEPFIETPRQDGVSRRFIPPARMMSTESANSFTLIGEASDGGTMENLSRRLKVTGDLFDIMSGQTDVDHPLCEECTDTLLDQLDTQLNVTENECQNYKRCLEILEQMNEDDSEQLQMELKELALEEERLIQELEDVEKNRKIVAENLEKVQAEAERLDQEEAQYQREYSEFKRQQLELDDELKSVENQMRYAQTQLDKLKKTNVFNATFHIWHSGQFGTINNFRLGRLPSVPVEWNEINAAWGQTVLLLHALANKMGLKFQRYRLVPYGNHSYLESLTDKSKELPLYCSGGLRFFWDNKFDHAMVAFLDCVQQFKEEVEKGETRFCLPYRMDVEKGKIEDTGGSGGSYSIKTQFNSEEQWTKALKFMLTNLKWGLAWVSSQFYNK
UniProt Q86WV6: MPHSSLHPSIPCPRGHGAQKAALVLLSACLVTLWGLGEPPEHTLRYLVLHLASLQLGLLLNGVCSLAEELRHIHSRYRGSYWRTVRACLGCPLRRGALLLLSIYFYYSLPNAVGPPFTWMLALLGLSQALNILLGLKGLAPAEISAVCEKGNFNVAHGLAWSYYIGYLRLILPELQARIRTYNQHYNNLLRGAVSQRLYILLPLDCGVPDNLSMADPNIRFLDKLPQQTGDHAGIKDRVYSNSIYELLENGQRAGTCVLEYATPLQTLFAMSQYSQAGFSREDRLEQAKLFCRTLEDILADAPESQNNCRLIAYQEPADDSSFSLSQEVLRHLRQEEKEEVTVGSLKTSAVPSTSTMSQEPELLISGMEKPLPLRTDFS

HA-tagged STING (stimulator of interferon response cGAMP interactor 1) (from UniProt Q86WV6 1-379)
binding: binds

— PMC10116723
